This note sets out measurements from publication PMC10256812.

Amino acid sequences for entries named in this document (tags omitted).
UniProt P10275: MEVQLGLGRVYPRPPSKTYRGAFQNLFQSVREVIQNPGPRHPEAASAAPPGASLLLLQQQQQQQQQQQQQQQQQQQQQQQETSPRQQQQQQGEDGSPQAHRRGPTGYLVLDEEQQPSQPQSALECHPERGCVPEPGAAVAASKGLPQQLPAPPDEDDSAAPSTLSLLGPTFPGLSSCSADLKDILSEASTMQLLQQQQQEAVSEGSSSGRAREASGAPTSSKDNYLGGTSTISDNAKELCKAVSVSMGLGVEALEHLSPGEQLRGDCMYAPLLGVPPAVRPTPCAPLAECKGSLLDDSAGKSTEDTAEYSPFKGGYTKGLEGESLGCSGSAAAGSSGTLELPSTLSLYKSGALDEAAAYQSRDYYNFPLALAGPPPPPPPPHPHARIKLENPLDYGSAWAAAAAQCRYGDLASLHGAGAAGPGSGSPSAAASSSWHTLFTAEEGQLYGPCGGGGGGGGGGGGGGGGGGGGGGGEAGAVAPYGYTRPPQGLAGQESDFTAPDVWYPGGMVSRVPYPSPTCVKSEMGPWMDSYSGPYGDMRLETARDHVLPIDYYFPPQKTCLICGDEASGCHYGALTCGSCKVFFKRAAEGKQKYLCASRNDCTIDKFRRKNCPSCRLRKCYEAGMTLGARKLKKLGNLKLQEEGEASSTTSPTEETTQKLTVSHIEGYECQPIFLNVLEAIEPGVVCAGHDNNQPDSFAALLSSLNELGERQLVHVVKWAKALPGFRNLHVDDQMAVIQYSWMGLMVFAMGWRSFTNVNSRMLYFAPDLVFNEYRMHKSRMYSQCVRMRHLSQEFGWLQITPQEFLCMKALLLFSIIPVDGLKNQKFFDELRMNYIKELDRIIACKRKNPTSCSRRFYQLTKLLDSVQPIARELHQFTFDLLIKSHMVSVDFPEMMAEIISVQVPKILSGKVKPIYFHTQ
UniProt Q92830: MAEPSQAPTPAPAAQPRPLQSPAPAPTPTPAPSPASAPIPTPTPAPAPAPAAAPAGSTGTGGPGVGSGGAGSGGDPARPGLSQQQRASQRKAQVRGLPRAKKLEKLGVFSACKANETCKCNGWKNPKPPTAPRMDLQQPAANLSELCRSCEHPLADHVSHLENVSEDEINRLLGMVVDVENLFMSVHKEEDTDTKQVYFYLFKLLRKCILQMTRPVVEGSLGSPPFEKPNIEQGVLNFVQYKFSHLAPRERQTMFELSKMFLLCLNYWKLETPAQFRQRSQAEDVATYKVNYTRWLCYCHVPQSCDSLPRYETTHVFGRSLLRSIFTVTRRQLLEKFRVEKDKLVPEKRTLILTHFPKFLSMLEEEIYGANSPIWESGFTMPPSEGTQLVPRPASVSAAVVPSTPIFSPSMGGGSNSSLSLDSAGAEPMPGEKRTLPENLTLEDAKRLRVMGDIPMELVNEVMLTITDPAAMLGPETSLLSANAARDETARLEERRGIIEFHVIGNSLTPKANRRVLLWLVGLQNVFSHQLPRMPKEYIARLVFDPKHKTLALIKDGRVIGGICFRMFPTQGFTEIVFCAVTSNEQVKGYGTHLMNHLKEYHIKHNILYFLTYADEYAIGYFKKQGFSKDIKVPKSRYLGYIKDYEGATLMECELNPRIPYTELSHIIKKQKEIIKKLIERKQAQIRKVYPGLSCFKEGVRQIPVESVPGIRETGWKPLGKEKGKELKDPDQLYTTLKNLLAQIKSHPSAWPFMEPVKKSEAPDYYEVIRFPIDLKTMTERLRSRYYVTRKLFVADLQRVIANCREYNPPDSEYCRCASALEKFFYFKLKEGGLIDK

Assay [1] deals with T1, His-tagged SREBF1 Y673/951A double mutant, expressed in HEK293T cells (UniProt P36956).
T1 sequence: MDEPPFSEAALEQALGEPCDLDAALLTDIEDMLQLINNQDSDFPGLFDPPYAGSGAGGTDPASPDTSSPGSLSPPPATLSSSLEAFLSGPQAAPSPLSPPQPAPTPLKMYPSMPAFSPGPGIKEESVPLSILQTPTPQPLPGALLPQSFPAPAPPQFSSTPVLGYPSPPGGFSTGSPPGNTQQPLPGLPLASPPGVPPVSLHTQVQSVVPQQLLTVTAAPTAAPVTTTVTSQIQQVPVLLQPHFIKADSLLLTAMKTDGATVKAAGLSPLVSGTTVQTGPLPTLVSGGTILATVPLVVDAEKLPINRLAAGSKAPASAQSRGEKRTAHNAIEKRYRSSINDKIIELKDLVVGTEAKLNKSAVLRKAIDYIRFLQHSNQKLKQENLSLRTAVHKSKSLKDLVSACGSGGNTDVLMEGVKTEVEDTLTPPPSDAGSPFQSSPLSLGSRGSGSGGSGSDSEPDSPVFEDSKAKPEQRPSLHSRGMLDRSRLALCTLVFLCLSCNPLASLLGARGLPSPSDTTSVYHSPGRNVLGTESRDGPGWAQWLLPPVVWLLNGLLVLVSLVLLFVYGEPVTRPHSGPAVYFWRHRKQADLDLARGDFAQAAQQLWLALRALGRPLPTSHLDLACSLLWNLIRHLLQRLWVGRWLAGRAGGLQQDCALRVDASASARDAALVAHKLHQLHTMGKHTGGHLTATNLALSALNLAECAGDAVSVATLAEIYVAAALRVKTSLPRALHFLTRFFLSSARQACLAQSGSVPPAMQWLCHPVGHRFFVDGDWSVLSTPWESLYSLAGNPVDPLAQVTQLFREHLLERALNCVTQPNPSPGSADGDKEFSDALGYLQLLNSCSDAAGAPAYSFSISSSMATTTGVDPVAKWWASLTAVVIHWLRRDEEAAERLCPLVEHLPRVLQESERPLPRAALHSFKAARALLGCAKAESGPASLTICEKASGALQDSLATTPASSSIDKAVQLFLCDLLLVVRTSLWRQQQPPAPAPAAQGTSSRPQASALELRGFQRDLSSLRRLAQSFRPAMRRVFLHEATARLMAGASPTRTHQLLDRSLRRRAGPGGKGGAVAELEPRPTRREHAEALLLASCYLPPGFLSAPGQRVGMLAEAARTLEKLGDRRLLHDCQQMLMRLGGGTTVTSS
The experiment in a line: co-IP; HEK293T cells transfected with FLAG-tagged AR and His-tagged SREBF1 or Y673/951A, DHT treatment; lysates precipitated with Ni-NTA beads (His), immunoblot with FLAG antibody.

The target of assay [2] is T2, HA-tagged SREBF1 (wild type), expressed in C4-2B cells (UniProt P36956).
T2 sequence: T1 sequence with A673Y, A951Y
The experiment in a line: co-IP; C4-2B cells infected with HA-tagged SREBF1 or Y673/951A constructs, in the presence of abiraterone; lysates immunoprecipitated with anti-HA affinity gel, immunoblot with KAT2A antibody.

Assay [3] deals with T3, sterol regulatory element-binding protein 1 (SREBF1), endogenous (human (endogenous in C4-2B, LAPC4, VCaP, HEK293T)) (UniProt P36956).
T3 sequence: T1 sequence with A673Y, A951Y
In words: co-IP; C4-2B and LAPC4 cells treated with abiraterone (7.5 uM); lysates (RLB: 20 mM HEPES pH 7.5, 500 mM NaCl, 1% Triton X-100) immunoprecipitated with SREBF1 antibody, immunoblot with KAT2A antibody; both endogenous.

Substitutions are numbered along the chain they refer to. These are yes or no findings as the source states them, for the method shown. In cells and extracts the contact can be indirect. Some entries that bind do so weakly or less than the wild type. For part of these data: Tags and fused reporters may be left off the sequences shown.

With “FLAG-tagged androgen receptor (AR) (from UniProt P10275 1-920)”, in assay [1], the binding entry is listed as “binds”. Consider “KAT2A/GCN5, endogenous (from UniProt Q92830 1-837) (enzyme)”, for which the binding entry in assay [2] and in assay [3] was “binds” each time.
